Test [1] deals with T1, Calhm2-HA (HA tag at the C-terminus of the mouse Calhm2 gene, transgenic mice) (mouse) (UniProt Q8VEC4).
T1 sequence: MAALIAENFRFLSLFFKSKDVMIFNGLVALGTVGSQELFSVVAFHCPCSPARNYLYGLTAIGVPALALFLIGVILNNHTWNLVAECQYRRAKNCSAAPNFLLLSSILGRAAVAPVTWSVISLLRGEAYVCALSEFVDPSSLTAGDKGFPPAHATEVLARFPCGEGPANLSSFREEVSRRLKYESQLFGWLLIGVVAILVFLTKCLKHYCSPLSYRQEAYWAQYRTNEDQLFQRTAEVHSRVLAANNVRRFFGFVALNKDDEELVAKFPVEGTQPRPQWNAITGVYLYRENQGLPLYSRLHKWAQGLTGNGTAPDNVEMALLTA
Briefly: affinity purification with mass spectrometry; brain tissue of Calhm2 WT and Calhm2-HA mice lysed and immunoprecipitated; mass spectrometry; tissue lysis buffer 50 mM NaCl (pH 7.4), 1 mM EDTA, 1 mM EGTA, 0.05% Triton-100; protein G agarose beads, 4 °C.

Protein sequences, listed by entry. Tags and fused reporters are not part of them.
UniProt Q9D8Y0: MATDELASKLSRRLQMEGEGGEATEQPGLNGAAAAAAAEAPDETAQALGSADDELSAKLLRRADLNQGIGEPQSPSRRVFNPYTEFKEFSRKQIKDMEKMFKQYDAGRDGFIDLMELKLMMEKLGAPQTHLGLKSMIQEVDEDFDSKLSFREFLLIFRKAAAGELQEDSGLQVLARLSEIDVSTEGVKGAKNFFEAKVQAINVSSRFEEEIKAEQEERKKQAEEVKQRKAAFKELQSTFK

The target in test [2] is T2, Flag-Calhm2 (calcium homeostasis modulator 2) (UniProt Q8VEC4).
T2 sequence: T1 sequence
Briefly: affinity purification with mass spectrometry; Flag-Calhm2 immunoprecipitated (Flag) from lysates of BV2 cells overexpressing Calhm2, against BV2 control cells; silver staining, mass spectrometry.

No constants are given. Whether binding was seen depends on the method and setting. Binding seen in cells or lysates may run through a third protein. A yes stands for co-enrichment or nearness to the bait. Other partners may have been found. Sequences can lack the tags named with a protein.

In PMC10091876 one finds binding data, which are given here for three substances.

Consider “EF-hand domain family member D2 (EFhd2), mouse brain (from UniProt Q9D8Y0 1-240)”, for which the binding entry in test [1] is “binds”. Consider “EF-hand domain family member D2 (EFhd2) (from UniProt Q9D8Y0 1-240)”, for which the binding entry in test [2] was “binds”. On the same count and under the same terms, then “actin-related protein 2/3 complex subunit 1 B (Arpc1B) (from UniProt Q9WV32 1-372)”, with “binds”.
